The values that follow come from PMC4894940, “The function of the two-pore channel TPC1 depends on dimerization of its carboxy-terminal helix” (Cellular and Molecular Life Sciences: CMLS, 2016).

Numbering of substitutions follows the chain as printed. Numbers in names are those of the source. No constants are given. Whether binding was seen depends on the method and setting. For some of these results: Binding seen in cells or lysates may run through a third protein. Some entries that bind do so weakly or less than the wild type. For some of these results: Sequences can lack the tags named with a protein.

Assay [1] has as its target Soluble C-terminus of TPC1 (amino acids 673-733) fused to GFP, N-terminally 6xMyc- or FLAG-tagged (Arabidopsis thaliana) (UniProt Q94KI8). Kind of assay: co-IP; HEK293T cells co-transfected; lysis buffer 10 mM HEPES, 150 mM NaCl, 1 % Nonidet P40, 5 % glycerol, pH 7.4; precipitation with anti-c-Myc 9E10 and protein G Dynabeads at 4 °C; western blot with anti-Myc or anti-Flag. (Immunoblotting shows a protein as a band on a membrane.)

The target in assay [2] is Soluble C-terminus of TPC1-3LP (amino acids 673-733) fused to GFP, N-terminally 6xMyc- or FLAG-tagged (Arabidopsis thaliana) (UniProt Q94KI8). The description is as above.
In assay [3] the target is TPC1-3LP (L714, L715 and L719 to proline), full-length, C-terminally fused to the Venus halves (Arabidopsis thaliana) (UniProt Q94KI8). Nature of the assay: split reporter; Split Venus BiFC; Agrobacterium C58C1 strains with helper strain p19 co-infiltrated into N. benthamiana leaves; confocal microscopy and plate-reader fluorescence of leaf disks 2.5 days after infiltration.

In assay [4] the target is Synthetic 3LA mutant CTH peptide (residues 707-723 of TPC1 with L714A, L715A, L719A) (Arabidopsis thaliana). Kind of assay: MST; label-free MST; 750 nM tryptophane-containing target peptide in PBS pH 7.5, 1 % DMSO, 0.1 % Pluronic, unlabeled ligand peptide varied from 3 nM to 100 µM, 25 °C, Monolith NT.labelfree; monomer to dimer; both purified.

B1: Soluble C-terminus of TPC1 (amino acids 673-733) fused to GFP, N-terminally 6xMyc- or FLAG-tagged (domain or fragment, UniProt Q94KI8 673-733)
chain: EAFFTELDLEEEEKCQGQDSQEKRNRRRSAGSKSRSQRVDTLLHHMLGDELSKPECSTSDT
Take B1: the binding entry in assay [1] is “binds”.

B2: Soluble C-terminus of TPC1-3LP (amino acids 673-733) fused to GFP, N-terminally 6xMyc- or FLAG-tagged (domain or fragment, UniProt Q94KI8 673-733)
chain: B1 chain with L42P, L43P, L47P
Turning to B2, the binding entry in assay [2] is “binds”.

B3: TPC1-3LP (L714, L715 and L719 to proline), full-length, C-terminally fused to the Venus halves (protein, UniProt Q94KI8 1-733)
chain: MEDPLIGRDSLGGGGTDRVRRSEAITHGTPFQKAAALVDLAEDGIGLPVEILDQSSFGESARYYFIFTRLDLIWSLNYFALLFLNFFEQPLWCEKNPKPSCKDRDYYYLGELPYLTNAESIIYEVITLAILLVHTFFPISYEGSRIFWTSRLNLVKVACVVILFVDVLVDFLYLSPLAFDFLPFRIAPYVRVIIFILSIRELRDTLVLLSGMLGTYLNILALWMLFLLFASWIAFVMFEDTQQGLTVFTSYGATLYQMFILFTTSNNPDVWIPAYKSSRWSSVFFVLYVLIGVYFVTNLILAVVYDSFKEQLAKQVSGMDQMKRRMLEKAFGLIDSDKNGEIDKNQCIKLFEQLTNYRTLPKISKEEFGLIFDELDDTRDFKINKDEFADLCQAIALRFQKEEVPSLFEHFPQIYHSALSQQLRAFVRSPNFGYAISFILIINFIAVVVETTLDIEESSAQKPWQVAEFVFGWIYVLEMALKIYTYGFENYWREGANRFDFLVTWVIVIGETATFITPDENTFFSNGEWIRYLLLARMLRLIRLLMNVQRYRAFIATFITLIPSLMPYLGTIFCVLCIYCSIGVQVFGGLVNAGNKKLFETELAEDDYLLFNFNDYPNGMVTLFNLLVMGNWQVWMESYKDLTGTWWSITYFVSFYVITILLLLNLVVAFVLEAFFTELDLEEEEKCQGQDSQEKRNRRRSAGSKSRSQRVDTPPHHMPGDELSKPECSTSDT
In the case of B3, the binding result in assay [3] is “binds”.

For RSQRVDTAAHHMAGDEL [Synthetic 3LA mutant CTH peptide (residues 707-723 of TPC1 with L714A, L715A, L719A)], in assay [4], the binding result is “no binding (tested: 3 nM to 100 µM)”.
